# The other results are listed elsewhere or left out.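 Rule for the calls: active = dose-dependent thermal stabilisation significant by F-test of dose-response against flat model at 10% FDR; inactive = not significant.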
# Sequences of proteins named here, by UniProt entry; tags and fusion partners are left off. A change or cut given only in a name is not applied to a line headed by its entry.
# UniProt P61019: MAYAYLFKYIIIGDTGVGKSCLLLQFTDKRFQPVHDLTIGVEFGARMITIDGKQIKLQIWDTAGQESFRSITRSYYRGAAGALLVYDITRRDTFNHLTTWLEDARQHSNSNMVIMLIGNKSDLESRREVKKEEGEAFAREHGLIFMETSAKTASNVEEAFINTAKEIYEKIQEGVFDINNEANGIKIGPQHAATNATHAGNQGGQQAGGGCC
# UniProt Q9Y2R2, whole entry: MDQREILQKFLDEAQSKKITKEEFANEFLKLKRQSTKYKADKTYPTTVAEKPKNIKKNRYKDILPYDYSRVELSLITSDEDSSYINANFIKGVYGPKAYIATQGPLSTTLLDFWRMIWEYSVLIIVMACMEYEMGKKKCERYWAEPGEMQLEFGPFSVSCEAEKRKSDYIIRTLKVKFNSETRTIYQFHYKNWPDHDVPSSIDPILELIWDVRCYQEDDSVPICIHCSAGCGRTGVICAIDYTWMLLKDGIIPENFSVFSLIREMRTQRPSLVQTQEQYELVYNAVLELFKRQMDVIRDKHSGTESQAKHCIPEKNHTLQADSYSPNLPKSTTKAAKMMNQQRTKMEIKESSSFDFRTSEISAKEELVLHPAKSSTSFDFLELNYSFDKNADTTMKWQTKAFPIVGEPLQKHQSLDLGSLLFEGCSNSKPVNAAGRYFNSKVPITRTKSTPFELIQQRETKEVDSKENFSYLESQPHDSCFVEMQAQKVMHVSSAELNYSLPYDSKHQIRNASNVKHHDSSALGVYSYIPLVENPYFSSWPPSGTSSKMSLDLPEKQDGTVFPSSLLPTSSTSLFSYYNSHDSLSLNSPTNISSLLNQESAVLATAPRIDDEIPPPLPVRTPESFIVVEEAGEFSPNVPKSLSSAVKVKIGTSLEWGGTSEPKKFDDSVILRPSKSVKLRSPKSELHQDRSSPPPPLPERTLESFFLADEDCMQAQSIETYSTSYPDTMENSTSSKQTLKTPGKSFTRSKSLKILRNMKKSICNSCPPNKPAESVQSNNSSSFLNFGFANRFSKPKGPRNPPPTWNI
# UniProt O95716: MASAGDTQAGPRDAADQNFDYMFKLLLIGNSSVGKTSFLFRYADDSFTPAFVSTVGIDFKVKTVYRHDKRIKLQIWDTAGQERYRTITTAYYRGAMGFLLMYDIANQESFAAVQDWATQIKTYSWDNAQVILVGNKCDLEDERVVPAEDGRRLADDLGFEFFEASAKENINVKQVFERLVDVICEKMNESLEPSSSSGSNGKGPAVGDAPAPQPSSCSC
# UniProt Q6JBY9, whole entry: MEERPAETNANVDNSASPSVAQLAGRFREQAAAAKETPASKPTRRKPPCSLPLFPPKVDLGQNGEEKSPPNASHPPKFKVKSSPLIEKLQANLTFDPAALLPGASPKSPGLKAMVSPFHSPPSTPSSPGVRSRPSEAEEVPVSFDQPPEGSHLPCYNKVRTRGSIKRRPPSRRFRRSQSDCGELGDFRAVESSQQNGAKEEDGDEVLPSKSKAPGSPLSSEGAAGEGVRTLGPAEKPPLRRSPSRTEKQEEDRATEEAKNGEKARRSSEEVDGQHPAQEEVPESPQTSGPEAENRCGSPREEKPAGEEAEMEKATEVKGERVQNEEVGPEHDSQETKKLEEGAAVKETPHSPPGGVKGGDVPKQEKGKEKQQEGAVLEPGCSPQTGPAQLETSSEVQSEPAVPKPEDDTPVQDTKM
# UniProt P20338: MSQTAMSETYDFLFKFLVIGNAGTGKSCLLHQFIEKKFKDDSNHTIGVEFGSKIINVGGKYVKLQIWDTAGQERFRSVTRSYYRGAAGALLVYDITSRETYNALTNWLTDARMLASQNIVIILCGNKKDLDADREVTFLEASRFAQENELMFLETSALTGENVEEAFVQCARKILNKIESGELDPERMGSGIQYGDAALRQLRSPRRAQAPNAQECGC
# UniProt P62877, whole entry, looked up: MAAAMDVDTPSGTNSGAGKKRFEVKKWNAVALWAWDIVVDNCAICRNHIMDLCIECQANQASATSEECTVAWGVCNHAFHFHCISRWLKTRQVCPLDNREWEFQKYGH
# UniProt Q96DA2: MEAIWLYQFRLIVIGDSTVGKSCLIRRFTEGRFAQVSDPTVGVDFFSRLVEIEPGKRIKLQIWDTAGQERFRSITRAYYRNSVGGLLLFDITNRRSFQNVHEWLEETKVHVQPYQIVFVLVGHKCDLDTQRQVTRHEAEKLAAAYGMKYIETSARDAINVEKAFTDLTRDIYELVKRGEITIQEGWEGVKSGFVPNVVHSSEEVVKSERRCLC
# UniProt Q9BXR0: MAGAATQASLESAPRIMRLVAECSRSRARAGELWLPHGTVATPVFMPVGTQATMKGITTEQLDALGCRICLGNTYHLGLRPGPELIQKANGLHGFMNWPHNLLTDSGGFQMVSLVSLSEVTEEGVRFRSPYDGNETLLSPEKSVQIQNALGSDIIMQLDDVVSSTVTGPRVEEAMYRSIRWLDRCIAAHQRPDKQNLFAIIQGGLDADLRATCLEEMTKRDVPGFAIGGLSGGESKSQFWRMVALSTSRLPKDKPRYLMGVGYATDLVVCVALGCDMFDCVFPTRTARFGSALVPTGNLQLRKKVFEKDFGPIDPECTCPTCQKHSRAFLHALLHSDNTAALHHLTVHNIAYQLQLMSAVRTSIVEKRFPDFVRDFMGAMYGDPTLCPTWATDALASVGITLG
# UniProt P62333, whole entry: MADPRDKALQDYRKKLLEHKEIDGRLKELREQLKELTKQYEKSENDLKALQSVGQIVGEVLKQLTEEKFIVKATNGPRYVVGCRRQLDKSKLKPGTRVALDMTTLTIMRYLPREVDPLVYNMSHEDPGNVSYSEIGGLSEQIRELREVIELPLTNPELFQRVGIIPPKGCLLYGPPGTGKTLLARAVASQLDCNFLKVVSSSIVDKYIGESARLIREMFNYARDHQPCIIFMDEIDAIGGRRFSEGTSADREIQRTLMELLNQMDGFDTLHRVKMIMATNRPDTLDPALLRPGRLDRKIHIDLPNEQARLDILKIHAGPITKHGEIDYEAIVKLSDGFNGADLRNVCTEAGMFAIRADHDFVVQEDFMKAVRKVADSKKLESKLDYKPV
# UniProt Q15257: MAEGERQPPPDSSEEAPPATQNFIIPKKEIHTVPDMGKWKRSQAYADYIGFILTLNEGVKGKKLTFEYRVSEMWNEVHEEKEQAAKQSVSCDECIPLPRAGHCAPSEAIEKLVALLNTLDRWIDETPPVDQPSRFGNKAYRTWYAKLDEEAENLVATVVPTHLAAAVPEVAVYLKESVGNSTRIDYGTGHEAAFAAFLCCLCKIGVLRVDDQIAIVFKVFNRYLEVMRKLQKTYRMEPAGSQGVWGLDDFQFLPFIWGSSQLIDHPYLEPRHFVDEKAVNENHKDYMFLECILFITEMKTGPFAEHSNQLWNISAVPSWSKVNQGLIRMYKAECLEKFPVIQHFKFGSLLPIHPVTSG
# UniProt Q13905: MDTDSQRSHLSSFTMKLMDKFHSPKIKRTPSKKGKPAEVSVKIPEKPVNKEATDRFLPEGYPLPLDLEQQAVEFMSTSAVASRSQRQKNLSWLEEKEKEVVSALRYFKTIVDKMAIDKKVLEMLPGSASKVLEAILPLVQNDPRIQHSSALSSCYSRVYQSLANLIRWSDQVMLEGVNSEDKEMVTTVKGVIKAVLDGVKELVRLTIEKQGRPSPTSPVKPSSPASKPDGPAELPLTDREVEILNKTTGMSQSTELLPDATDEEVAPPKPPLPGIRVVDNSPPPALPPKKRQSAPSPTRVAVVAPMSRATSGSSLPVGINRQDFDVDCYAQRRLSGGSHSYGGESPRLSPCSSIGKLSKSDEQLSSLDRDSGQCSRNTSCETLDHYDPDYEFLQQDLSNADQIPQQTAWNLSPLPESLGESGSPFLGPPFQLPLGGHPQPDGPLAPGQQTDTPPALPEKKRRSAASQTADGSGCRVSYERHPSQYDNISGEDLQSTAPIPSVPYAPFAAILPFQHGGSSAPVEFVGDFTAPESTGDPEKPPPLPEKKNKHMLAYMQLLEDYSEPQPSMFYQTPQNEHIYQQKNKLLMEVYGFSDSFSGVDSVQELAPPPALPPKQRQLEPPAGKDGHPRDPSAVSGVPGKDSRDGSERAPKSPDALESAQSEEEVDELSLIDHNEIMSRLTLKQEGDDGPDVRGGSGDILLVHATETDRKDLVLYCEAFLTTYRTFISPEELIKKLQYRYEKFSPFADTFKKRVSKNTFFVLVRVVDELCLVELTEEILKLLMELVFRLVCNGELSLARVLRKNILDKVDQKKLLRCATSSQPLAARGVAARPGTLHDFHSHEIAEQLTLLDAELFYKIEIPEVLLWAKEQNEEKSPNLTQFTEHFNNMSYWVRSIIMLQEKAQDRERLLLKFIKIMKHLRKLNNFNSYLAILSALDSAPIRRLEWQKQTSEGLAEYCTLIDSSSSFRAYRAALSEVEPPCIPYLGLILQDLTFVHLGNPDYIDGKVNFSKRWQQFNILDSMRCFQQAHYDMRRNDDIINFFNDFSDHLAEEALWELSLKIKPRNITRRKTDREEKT
# UniProt P28072: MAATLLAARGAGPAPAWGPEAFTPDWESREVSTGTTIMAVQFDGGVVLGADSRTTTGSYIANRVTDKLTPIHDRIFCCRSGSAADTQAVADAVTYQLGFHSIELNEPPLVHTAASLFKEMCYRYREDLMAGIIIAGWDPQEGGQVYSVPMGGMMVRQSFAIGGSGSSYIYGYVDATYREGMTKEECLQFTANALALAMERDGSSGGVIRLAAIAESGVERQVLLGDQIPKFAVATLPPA
# UniProt O60216: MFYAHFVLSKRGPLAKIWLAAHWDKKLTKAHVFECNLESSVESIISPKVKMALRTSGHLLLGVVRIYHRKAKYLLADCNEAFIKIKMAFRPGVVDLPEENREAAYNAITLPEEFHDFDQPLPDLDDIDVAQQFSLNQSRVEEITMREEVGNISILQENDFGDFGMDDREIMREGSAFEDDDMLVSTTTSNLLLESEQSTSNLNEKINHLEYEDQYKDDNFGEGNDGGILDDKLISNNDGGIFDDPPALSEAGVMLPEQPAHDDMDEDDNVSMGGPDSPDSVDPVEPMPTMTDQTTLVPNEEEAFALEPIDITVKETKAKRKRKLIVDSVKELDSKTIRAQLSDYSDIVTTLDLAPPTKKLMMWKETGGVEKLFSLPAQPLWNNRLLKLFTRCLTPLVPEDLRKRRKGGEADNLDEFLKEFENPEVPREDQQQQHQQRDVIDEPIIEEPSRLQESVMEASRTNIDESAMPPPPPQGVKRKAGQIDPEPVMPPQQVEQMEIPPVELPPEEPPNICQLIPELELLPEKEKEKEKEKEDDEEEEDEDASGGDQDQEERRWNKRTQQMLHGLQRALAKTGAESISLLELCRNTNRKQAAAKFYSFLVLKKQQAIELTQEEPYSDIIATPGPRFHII
# UniProt P20340: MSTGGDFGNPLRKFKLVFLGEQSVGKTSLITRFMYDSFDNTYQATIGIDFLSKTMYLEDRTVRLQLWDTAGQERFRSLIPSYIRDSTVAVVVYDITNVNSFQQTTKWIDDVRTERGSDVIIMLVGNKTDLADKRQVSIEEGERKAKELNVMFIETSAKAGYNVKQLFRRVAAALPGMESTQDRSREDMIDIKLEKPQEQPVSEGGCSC
# UniProt O60671: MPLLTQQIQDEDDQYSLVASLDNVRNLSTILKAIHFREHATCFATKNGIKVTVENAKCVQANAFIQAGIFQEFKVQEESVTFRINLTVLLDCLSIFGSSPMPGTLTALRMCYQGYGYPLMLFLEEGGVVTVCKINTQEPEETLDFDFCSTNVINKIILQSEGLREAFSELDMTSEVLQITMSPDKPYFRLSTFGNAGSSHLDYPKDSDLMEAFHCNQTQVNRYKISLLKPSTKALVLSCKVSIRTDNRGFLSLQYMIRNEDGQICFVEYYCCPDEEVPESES
# UniProt P47897: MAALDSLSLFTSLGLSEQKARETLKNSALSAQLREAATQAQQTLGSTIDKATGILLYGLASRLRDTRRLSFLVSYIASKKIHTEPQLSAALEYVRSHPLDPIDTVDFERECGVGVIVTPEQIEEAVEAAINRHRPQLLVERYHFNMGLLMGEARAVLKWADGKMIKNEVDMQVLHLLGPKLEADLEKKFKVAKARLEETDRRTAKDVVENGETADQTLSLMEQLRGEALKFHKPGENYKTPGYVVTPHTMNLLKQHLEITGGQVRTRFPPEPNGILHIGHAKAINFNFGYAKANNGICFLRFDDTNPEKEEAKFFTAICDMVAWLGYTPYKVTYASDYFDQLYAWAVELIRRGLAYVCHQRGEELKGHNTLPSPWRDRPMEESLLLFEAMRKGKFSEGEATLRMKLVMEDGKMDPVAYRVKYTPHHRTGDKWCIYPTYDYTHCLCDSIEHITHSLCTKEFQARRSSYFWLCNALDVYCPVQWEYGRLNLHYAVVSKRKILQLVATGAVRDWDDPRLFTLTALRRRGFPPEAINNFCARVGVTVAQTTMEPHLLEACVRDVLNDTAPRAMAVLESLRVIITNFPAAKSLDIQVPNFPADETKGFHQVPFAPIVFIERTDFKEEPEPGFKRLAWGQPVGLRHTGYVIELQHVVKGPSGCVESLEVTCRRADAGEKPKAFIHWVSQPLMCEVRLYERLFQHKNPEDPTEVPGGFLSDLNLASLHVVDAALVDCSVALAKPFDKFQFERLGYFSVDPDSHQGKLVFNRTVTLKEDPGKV
# Compound: Nc1nc2c(ncn2[C@@H]2O[C@H](COP(=O)(O)OP(=O)(O)OP(=O)(O)O)[C@@H](O)[C@H]2O)c(=O)[nH]1
# Test: dose-dependent thermal stabilisation call (2D-TPP, DLPTP, 10% FDR) (binary (1 = stabilised)); higher = stabilised by the compound
# Details: system: Jurkat gel-filtered lysate; concentration range 1-500 µM
row,Target,dose-dependent thermal stabilisation call
1,RAB2A (UniProt P61019),inactive: 0
2,RBBP6 (UniProt Q7Z6E9),inactive: 0
3,PTPN22 (UniProt Q9Y2R2),inactive: 0
4,RAB3D (UniProt O95716),active: 1
5,PTPN23 (UniProt Q9H3S7),inactive: 0
6,PSIP1 (UniProt O75475),inactive: 0
7,RCSD1 (UniProt Q6JBY9),inactive: 0
8,RBM6 (UniProt P78332),inactive: 0
9,RAD9A (UniProt Q99638),active: 1
10,RAB4A (UniProt P20338),active: 1
11,RBX1 (UniProt P62877),inactive: 0
12,QTRT2 (UniProt Q9H974),inactive: 0
13,RB1CC1 (UniProt Q8TDY2),inactive: 0
14,PSMD13 (UniProt Q9UNM6),inactive: 0
15,RANBP3 (UniProt Q9H6Z4),inactive: 0
16,RAB39B (UniProt Q96DA2),active: 1
17,QTRT1 (UniProt Q9BXR0),inactive: 0
18,PSMC6 (UniProt P62333),inactive: 0

row,Target,dose-dependent thermal stabilisation call
1,PTPA (UniProt Q15257),inactive: 0
2,PRKACA (UniProt P17612),inactive: 0
3,PTP4A2 (UniProt Q12974),inactive: 0
4,PRMT7 (UniProt Q9NVM4),active: 1
5,RBBP8 (UniProt Q99708),inactive: 0
6,PSMB5 (UniProt P28074),inactive: 0
7,PUM1 (UniProt Q14671),inactive: 0
8,PRIM2 (UniProt P49643),active: 1
9,RAPGEF1 (UniProt Q13905),inactive: 0
10,PSMB6 (UniProt P28072),inactive: 0
11,RCN1 (UniProt Q15293),inactive: 0
12,RAD21 (UniProt O60216),inactive: 0
13,RBL1 (UniProt P28749),inactive: 0
14,RAB6A (UniProt P20340),active: 1
15,RAD23B (UniProt P54727),inactive: 0
16,RAD1 (UniProt O60671),inactive: 0
17,PSMG2 (UniProt Q969U7),inactive: 0
18,QARS (UniProt P47897),active: 1

# Single values from above.
# QARS (UniProt P47897) | dose-dependent thermal stabilisation call: active: 1
# PSMB6 (UniProt P28072) | dose-dependent thermal stabilisation call: inactive: 0

# — the supplement of paper PMC7666118
